According to paper doi:10.1101/681833:
Results are given in words; binding and its absence hold for the method and conditions named. In cells and extracts the contact can be indirect. A result given as binding can be weak or reduced; the word gives no strength.

Biological target: T1, malin (co-expressed in cells) (UniProt Q6VVB1)
T1 sequence: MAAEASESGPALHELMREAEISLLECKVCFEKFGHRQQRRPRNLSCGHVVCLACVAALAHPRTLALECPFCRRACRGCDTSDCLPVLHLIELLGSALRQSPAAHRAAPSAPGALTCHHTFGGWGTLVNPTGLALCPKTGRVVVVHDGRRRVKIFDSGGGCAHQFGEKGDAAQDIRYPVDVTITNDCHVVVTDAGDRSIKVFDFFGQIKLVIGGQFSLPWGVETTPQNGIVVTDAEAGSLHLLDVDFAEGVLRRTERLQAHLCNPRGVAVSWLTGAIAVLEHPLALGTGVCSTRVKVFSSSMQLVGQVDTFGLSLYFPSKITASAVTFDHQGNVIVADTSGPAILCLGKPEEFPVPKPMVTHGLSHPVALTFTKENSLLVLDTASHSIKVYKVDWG
Assay: co-IP

glycogen phosphorylase liver isoform (co-expressed in cells) (enzyme)
binding: binds
